Experimental data: PubChem BioAssay AID1259254 (NCATS, 2017)

- Screen: 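Genome-wide screen for genes that prevent DNA re-replication in cancer cells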 (primary screen)
- System: human HCT116 colorectal cancer cells
- Reagent: single siRNA against human genes
- Time to read-out: 3 days
- Detection: 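Nuclei stained with Hoechst and imaged; cell-cycle phase assigned by DNA content; G2 share scaled per plate, non-targeting siRNA 0%, GMNN siRNA 100%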
- Scale: G2 robust z-score and G2 cells, % of GMNN control: higher = more G2 cells, more excess DNA replication; raw share of cells in G2: higher = larger share of cells with G2 DNA content
- Active means: 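An siRNA counts as active if its G2 robust z-score lies at least 5 MADs above the screen median; here such calls match roughly 38% of GMNN control or more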
Here is a random part of about 59,000 deposited reagents. About 1,550 of all reagents (2.6%) count as active. 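G2 share is only a proxy for re-replication; each gene was hit by three separate siRNAs, and active genes were retested.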 Raw values are not corrected between plates. The numbers tell different reagents against one gene apart. No sequences are given here. Not given: the amount of reagent.

| Gene | reagent | G2 robust z-score | G2 cells, % of GMNN control | raw share of cells in G2 (%) | outcome |
| --- | --- | --- | --- | --- | --- |
| ARHGAP22 | 1 | -0.922 | -3.52 | 1.92 | inactive |
| ARHGAP22 | 2 | -0.0592 | 2.55 | 5.35 | inactive |
| ARHGAP22 | 3 | 0.804 | 8.63 | 8.58 | inactive |
| SCN4A | 1 | -0.768 | -2.44 | 4.4 | inactive |
| SCN4A | 2 | 0.109 | 3.74 | 6.04 | inactive |
| SCN4A | 3 | 6.21 | 46.6 | 22.6 | active |
| IGSF1 | 1 | 1.14 | 11 | 7.83 | inactive |
| IGSF1 | 2 | -0.513 | -0.643 | 4.55 | inactive |
| IGSF1 | 3 | 0.908 | 9.36 | 6.5 | inactive |
| APCDD1L | 1 | 0.164 | 4.12 | 5.08 | inactive |
| APCDD1L | 2 | -1.27 | -5.97 | 0.956 | inactive |
| APCDD1L | 3 | -0.561 | -0.979 | 2.45 | inactive |
| OPN3 | 1 | -1.64 | -8.54 | 2.79 | inactive |
| OPN3 | 2 | -0.647 | -1.59 | 3.96 | inactive |
| OPN3 | 3 | 0.162 | 4.1 | 4.53 | inactive |
| RGMB-AS1 | 1 | 0.169 | 4.16 | 5.23 | inactive |
| RGMB-AS1 | 2 | -0.733 | -2.19 | 2.59 | inactive |
| RGMB-AS1 | 3 | -0.0523 | 2.6 | 4 | inactive |
| MOGAT2 | 1 | 0.701 | 7.9 | 7.71 | inactive |
| MOGAT2 | 2 | 1.71 | 15 | 11.7 | inactive |
| MOGAT2 | 3 | 2.2 | 18.4 | 10.9 | inactive |
| PADI3 | 1 | -1.31 | -6.23 | 3.13 | inactive |
| PADI3 | 2 | 0.238 | 4.64 | 5.96 | inactive |
| PADI3 | 3 | -1.04 | -4.38 | 2.12 | inactive |

In a second layout: 8 of the entries above
{"Gene": "APCDD1L", "reagent": 2, "G2 robust z-score": -1.27, "G2 cells, % of GMNN control": -5.97, "raw share of cells in G2 (%)": 0.956, "outcome": "inactive"}
{"Gene": "APCDD1L", "reagent": 3, "G2 robust z-score": -0.561, "G2 cells, % of GMNN control": -0.979, "raw share of cells in G2 (%)": 2.45, "outcome": "inactive"}
{"Gene": "OPN3", "reagent": 1, "G2 robust z-score": -1.64, "G2 cells, % of GMNN control": -8.54, "raw share of cells in G2 (%)": 2.79, "outcome": "inactive"}
{"Gene": "OPN3", "reagent": 2, "G2 robust z-score": -0.647, "G2 cells, % of GMNN control": -1.59, "raw share of cells in G2 (%)": 3.96, "outcome": "inactive"}
{"Gene": "OPN3", "reagent": 3, "G2 robust z-score": 0.162, "G2 cells, % of GMNN control": 4.1, "raw share of cells in G2 (%)": 4.53, "outcome": "inactive"}
{"Gene": "RGMB-AS1", "reagent": 1, "G2 robust z-score": 0.169, "G2 cells, % of GMNN control": 4.16, "raw share of cells in G2 (%)": 5.23, "outcome": "inactive"}
{"Gene": "RGMB-AS1", "reagent": 2, "G2 robust z-score": -0.733, "G2 cells, % of GMNN control": -2.19, "raw share of cells in G2 (%)": 2.59, "outcome": "inactive"}
{"Gene": "RGMB-AS1", "reagent": 3, "G2 robust z-score": -0.0523, "G2 cells, % of GMNN control": 2.6, "raw share of cells in G2 (%)": 4, "outcome": "inactive"}

Further records follow:
| Gene | reagent | G2 robust z-score | G2 cells, % of GMNN control | raw share of cells in G2 (%) | outcome |
| --- | --- | --- | --- | --- | --- |
| PRR34 | 1 | -0.397 | 0.171 | 4.59 | inactive |
| PRR34 | 2 | 1.71 | 15 | 10.3 | inactive |
| PRR34 | 3 | 1.53 | 13.7 | 7.52 | inactive |
| RFPL1 | 1 | -1.14 | -5.06 | 2.75 | inactive |
| RFPL1 | 2 | -0.209 | 1.49 | 4.64 | inactive |
| RFPL1 | 3 | 1.47 | 13.3 | 9.56 | inactive |
| TYR | 1 | 4.71 | 36.1 | 20.9 | inactive |
| TYR | 2 | 0.129 | 3.88 | 5.71 | inactive |
| TYR | 3 | 1.84 | 15.9 | 9.71 | inactive |
| ATP9A | 1 | -0.289 | 0.934 | 5.13 | inactive |
| ATP9A | 2 | -0.194 | 1.6 | 3.75 | inactive |
| ATP9A | 3 | -0.855 | -3.05 | 4.05 | inactive |
| HSF2 | 1 | 7.98 | 59.1 | 26.5 | active |
| HSF2 | 2 | 2.8 | 22.7 | 14.3 | inactive |
| HSF2 | 3 | -0.982 | -3.94 | 2.76 | inactive |
| MR1 | 1 | -0.197 | 1.58 | 6.04 | inactive |
| MR1 | 2 | -0.759 | -2.37 | 3.22 | inactive |
| MR1 | 3 | -0.433 | -0.0771 | 3.49 | inactive |
| SLC22A24 | 1 | -0.164 | 1.81 | 4.3 | inactive |
| SLC22A24 | 2 | 1.69 | 14.8 | 8.79 | inactive |
| SLC22A24 | 3 | 0.832 | 8.82 | 5.95 | inactive |
| AP5B1 | 1 | 3.23 | 25.7 | 15 | inactive |
| AP5B1 | 2 | 1.18 | 11.3 | 6.53 | inactive |
| AP5B1 | 3 | 1 | 10 | 6.1 | inactive |
| SEMA4F | 1 | 0.0851 | 3.57 | 7.24 | inactive |
| SEMA4F | 2 | -1.57 | -8.11 | 3.28 | inactive |
| SEMA4F | 3 | -0.494 | -0.506 | 3.68 | inactive |
| POLH | 1 | 1.22 | 11.6 | 8.95 | inactive |
| POLH | 2 | -0.37 | 0.361 | 4.82 | inactive |
| POLH | 3 | -0.875 | -3.19 | 3.08 | inactive |
| FAM230A | 1 | 0.215 | 4.48 | 5.27 | inactive |
| FAM230A | 2 | 0.159 | 4.09 | 4.68 | inactive |
| FAM230A | 3 | -0.235 | 1.31 | 3.17 | inactive |
| FNTA | 1 | 1.3 | 12.1 | 9.86 | inactive |
| FNTA | 2 | -0.892 | -3.31 | 4.03 | inactive |
| FNTA | 3 | 1.24 | 11.7 | 7.81 | inactive |
| DCTN1 | 1 | 2.2 | 18.5 | 11.6 | inactive |
| DCTN1 | 2 | -0.184 | 1.67 | 5.6 | inactive |
| DCTN1 | 3 | 0.236 | 4.63 | 5.69 | inactive |
| NREPP1 | 1 | 1.61 | 14.3 | 9.18 | inactive |
| NREPP1 | 2 | 0.3 | 5.08 | 5.11 | inactive |
| NREPP1 | 3 | -0.995 | -4.03 | 1.76 | inactive |
| CA7 | 1 | -0.171 | 1.76 | 4.65 | inactive |
| CA7 | 2 | 0.117 | 3.79 | 6.42 | inactive |
| CA7 | 3 | -1.68 | -8.86 | 1.7 | inactive |
